Patent US11712440B2, “Predictive markers for ATR kinase inhibitors” (Bayer Aktiengesellschaft, priority 2017, dated 2023)

How the values were obtained:
Assay in all cases: cells
Settings in all cases: Gallus gallus, DT40, 72 h
[1] = tested on: DT40 CtIP+/−/− cells (RBBP8 heterozygous knockout)
[2] = tested on: wild-type DT40 chicken lymphoma cells
[3] = tested on: DT40 CtIPs/−/− cells (RBBP8, S322A mutation)

Question: Which IC50 [1] does the source give for `C[C@@H]1COCCN1c1cc(-c2ccnn2C)c2ccnc(-c3ccn[nH]3)c2n1` [Compound A, 2-[(3R)-3-methylmorpholin-4-yl]-4-(1-methyl-1H-pyrazol-5-yl)-8-(1H-pyrazol-5-yl)-1,7-naphthyridine] here?
Answer: The IC50 was 0.034 µM.

Question: And the IC50 [2]?
Answer: Its IC50 is 0.13 µM.

Question: And the IC50 [3]?
Answer: The IC50 was 0.068 µM.
